Experimental data from the M2OR odorant receptor database.
The list shows a part of the results, in another mix than the full data. The calls were merged from several studies; some rest on single wells. The list shows a part of the results.

Experiments:
Conditions in all cases: stereoisomer not certain
OR1G1 (Homo sapiens) = target: T1, OR1G1 (Homo sapiens) (UniProt P47890)
T1 sequence (whole entry): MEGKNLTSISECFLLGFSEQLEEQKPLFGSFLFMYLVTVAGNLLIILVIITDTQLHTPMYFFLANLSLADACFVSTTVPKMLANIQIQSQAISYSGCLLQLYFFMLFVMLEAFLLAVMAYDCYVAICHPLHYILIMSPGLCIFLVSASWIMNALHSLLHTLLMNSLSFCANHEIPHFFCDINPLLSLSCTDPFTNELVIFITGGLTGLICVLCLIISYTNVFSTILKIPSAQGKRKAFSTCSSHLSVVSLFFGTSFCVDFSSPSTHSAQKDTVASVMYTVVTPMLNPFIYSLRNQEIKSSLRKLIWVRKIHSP
How it was run: (§1)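 Transient luciferase assays in mammalian cell lines were common, though methods varied by source. The values come from published papers and their supplementary material, with extra details from the original authors when needed. Responsive refers to a measured signal the original authors judged statistically different from baseline, and non-responsive (inactive) to the remainder.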

OR1I1 = tested on: T2, OR1I1
T2 sequence (whole entry): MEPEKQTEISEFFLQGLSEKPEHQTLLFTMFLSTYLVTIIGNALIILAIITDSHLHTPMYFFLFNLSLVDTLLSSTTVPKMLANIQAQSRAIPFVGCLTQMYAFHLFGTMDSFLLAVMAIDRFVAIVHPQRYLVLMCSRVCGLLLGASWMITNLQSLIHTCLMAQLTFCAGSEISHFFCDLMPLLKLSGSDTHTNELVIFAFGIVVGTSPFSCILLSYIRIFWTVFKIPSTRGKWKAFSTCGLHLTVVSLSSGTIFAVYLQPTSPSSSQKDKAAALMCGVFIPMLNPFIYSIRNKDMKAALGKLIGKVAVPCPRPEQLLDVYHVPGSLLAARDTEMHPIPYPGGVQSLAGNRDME
How it was run: as §1

OR1J1 (Homo sapiens) = target: T3, OR1J1 (Homo sapiens) (UniProt Q8NGS3)
T3 sequence (whole entry): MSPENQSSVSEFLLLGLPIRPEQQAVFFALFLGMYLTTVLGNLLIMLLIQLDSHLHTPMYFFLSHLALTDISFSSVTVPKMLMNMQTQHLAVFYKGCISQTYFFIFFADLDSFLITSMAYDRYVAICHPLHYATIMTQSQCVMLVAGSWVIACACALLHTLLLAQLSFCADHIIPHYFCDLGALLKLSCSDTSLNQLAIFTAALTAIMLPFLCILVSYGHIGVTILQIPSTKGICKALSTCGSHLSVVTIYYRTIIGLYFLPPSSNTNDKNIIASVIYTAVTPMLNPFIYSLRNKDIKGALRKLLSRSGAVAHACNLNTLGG
How it was run: as §1

OR1J2 (Homo sapiens) = target: T4, OR1J2 (Homo sapiens) (UniProt Q8NGS2)
T4 sequence (whole entry): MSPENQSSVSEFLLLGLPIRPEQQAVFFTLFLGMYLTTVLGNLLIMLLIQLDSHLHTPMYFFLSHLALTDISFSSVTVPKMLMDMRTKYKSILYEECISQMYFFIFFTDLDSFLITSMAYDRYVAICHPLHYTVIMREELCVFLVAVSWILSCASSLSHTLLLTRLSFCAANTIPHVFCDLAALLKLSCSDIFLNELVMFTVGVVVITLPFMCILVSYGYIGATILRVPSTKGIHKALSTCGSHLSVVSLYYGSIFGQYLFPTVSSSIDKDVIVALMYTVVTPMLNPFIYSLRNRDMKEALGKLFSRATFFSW
How it was run: as §1

OR1J4 (Homo sapiens) = target: T5, OR1J4 (Homo sapiens) (UniProt Q8NGS1)
T5 sequence (whole entry): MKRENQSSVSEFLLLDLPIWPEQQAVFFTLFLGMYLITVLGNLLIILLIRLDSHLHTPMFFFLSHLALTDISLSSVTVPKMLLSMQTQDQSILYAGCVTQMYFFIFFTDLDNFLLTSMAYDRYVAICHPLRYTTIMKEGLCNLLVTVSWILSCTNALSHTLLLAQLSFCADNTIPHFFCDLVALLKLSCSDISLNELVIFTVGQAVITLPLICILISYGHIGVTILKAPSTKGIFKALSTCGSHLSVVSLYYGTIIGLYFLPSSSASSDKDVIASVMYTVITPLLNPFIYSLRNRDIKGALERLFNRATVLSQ
How it was run: as §1

OR1K1 (Homo sapiens) = target: T6, OR1K1 (Homo sapiens) (UniProt Q8NGR3)
T6 sequence (whole entry): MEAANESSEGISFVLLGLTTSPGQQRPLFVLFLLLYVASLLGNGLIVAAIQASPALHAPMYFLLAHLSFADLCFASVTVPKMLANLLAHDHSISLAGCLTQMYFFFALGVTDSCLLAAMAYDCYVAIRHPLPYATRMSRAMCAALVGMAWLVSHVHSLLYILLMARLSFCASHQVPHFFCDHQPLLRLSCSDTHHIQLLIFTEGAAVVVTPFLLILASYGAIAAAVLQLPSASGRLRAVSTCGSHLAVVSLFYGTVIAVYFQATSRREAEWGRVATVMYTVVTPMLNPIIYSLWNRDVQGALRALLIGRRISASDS
How it was run: as §1

OR1L1 = tested on: T7, OR1L1
T7 sequence (whole entry): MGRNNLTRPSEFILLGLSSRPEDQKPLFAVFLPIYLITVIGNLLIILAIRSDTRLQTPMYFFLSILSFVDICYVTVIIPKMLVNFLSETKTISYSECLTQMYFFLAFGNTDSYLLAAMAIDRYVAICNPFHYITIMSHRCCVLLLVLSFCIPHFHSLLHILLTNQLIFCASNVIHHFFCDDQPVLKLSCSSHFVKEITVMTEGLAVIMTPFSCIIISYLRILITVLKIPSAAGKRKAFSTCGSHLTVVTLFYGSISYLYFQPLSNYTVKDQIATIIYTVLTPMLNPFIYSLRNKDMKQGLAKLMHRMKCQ
How it was run: as §1

OR1L3 (Homo sapiens) = target: T8, OR1L3 (Homo sapiens) (UniProt Q8NH93)
T8 sequence (whole entry): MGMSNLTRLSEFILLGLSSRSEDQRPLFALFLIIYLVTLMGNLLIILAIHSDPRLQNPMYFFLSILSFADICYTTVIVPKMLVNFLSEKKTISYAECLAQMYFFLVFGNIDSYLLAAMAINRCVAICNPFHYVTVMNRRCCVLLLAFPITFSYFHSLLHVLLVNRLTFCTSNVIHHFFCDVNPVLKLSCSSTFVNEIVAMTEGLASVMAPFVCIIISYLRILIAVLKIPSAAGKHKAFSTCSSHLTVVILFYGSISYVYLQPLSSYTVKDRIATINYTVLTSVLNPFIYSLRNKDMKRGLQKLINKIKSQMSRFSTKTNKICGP
How it was run: as §1

OR1L4 = tested on: T9, OR1L4
T9 sequence (whole entry): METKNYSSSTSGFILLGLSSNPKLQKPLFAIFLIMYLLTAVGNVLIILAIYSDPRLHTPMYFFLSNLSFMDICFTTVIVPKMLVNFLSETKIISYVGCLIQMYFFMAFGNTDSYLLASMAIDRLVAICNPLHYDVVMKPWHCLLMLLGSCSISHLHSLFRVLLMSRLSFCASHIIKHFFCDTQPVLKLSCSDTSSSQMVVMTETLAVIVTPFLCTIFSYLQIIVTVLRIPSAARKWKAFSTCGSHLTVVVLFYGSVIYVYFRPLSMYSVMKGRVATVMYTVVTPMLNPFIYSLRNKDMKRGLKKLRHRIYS
How it was run: as §1

OR1L6 = tested on: T10, OR1L6
T10 sequence (whole entry): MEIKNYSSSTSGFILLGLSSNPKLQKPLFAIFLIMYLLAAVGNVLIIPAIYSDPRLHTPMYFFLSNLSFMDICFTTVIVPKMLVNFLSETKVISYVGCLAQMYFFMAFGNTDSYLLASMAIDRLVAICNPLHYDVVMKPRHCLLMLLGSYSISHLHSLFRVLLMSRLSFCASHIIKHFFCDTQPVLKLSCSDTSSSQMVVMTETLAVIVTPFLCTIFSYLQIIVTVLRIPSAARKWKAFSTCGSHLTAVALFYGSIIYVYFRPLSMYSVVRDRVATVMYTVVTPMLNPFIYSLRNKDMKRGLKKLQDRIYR
How it was run: as §1

Measured: odorant receptor agonist call;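 note: active if original authors judged signal statistically different from baseline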

CCC(C)=O
inactive: all assays above

CCOc1cc(C=O)ccc1O
inactive: OR1G1 (Homo sapiens)

CS
inactive: all assays above

CCCCOC(C)=O
inactive: all assays above
